Columns and labels:
[1] = Physiological parameters of tMCAo rats (MDS PS study)
[2] = Physiological parameters of tMCAo rats (Neurokin study); conditions: pre-MCAo treatment
[3] = post- 1mg/kg/hr group, Post-occlusion
[4] = post- 1mg/kg/hr group, Post-reperfusion
[5] = post- 1mg/kg/hr group, Pre-occlusion
[6] = post- 5mg/kg/hr group, Post-occlusion
[7] = post- 5mg/kg/hr group, Post-reperfusion
[8] = post- 5mg/kg/hr group, Pre-occlusion
[9] = post- 10mg/kg/hr group, Post-occlusion
[10] = post- 10mg/kg/hr group, Post-reperfusion
[11] = post- 10mg/kg/hr group, Pre-occlusion

CC[C@@H](CO)Nc1nc(NCc2ccccc2)c2ncn(C(C)C)c2n1 [(S)-roscovitine]
Body temp [1, 3]: 37.3 +/- 0.1 ^oC | Glucose [1, 3]: 276 ± 19 mg/dL | Body temp [1, 4]: 38.3 +/- 0.1 ^oC | Glucose [1, 4]: 166 ± 6 mg/dL | Body temp [1, 5]: 37.6 +/- 0.1 ^oC | Glucose [1, 5]: 105 ± 4 mg/dL | Body temp [1, 6]: 37.2 +/- 0.0 ^oC | Glucose [1, 6]: 259 ± 25 mg/dL | Body temp [1, 7]: 38.5 +/- 0.2 ^oC | Glucose [1, 7]: 172 ± 11 mg/dL | Body temp [1, 8]: 37.5 +/- 0.1 ^oC | Glucose [1, 8]: 98 ± 2 mg/dL | Body temp [1, 9]: 37.2 +/- 0.0 ^oC | Glucose [1, 9]: 257 ± 24 mg/dL | Body temp [1, 10]: 38.6 +/- 0.2 ^oC | Glucose [1, 10]: 167 ± 9 mg/dL | Body temp [1, 11]: 37.5 +/- 0.1 ^oC | Glucose [1, 11]: 116 ± 11 mg/dL | Body temp ([1]; pre- group, Post-occlusion): 37.5 +/- 0.1 ^oC | Glucose ([1]; pre- group, Post-occlusion): 297 ± 26 mg/dL | Body temp ([1]; pre- group, Post-reperfusion): 38.3 +/- 0.2 ^oC | Glucose ([1]; pre- group, Post-reperfusion, ** p<0.05): 198 ± 313 mg/dL | Body temp ([1]; pre- group, Pre-occlusion): 37.3 +/- 0.1 ^oC | Glucose ([1]; pre- group, Pre-occlusion): 104 ± 5 mg/dL | Body temp ([2]; Post-occlusion): 36.8 +/- 0.1 ^oC | Glucose ([2]; Post-occlusion): 214 ± 15 mg/dL | Body temp ([2]; Post-reperfusion, ** p<0.05 vs vehicle): 38.1 +/- 0.2 ^oC | Body temp ([2]; Pre-occlusion): 37.1 +/- 0.1 ^oC | Glucose ([2]; Pre-occlusion): 154 ± 8 mg/dL
